According to the supplement of paper PMC12819154, “High-throughput peptide-centric local stability assay extends protein–ligand identification to membrane proteins, tissues and bacteria” (Nature Structural & Molecular Biology, 2025):
The list shows a part of the results. Most values lie at the level of the controls, where differences are scatter.

The chains behind the UniProt entries cited, without tags or fusion partners. Where a name states a change or a piece, a line headed by the entry shows the natural chain unless it says otherwise.
UniProt O00541, whole entry: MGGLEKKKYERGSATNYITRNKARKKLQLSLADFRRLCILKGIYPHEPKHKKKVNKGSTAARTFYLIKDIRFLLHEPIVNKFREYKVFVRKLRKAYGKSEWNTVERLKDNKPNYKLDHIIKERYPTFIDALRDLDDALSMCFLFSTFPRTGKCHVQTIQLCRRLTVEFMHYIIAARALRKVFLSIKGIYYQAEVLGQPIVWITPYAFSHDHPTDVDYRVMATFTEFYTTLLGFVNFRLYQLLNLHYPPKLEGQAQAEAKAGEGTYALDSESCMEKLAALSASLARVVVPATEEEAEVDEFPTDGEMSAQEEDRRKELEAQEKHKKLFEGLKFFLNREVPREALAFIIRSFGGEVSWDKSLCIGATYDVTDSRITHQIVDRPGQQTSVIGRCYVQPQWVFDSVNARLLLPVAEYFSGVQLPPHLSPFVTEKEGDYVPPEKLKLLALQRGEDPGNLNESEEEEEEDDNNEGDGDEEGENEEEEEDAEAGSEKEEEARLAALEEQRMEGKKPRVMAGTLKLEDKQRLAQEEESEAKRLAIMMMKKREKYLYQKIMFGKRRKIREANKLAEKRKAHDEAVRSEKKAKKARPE
UniProt O15379: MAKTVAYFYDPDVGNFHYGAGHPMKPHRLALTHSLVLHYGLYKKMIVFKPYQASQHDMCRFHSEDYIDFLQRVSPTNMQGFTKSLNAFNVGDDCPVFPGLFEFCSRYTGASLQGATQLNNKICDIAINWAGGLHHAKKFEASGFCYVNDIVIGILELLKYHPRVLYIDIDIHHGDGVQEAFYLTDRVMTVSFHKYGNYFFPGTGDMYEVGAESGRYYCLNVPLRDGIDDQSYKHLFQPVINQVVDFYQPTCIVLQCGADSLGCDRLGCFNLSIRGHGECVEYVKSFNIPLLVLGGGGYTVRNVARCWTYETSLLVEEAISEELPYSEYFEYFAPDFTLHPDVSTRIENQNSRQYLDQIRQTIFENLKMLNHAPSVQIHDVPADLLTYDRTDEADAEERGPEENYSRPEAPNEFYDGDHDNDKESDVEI
UniProt A6NFY7: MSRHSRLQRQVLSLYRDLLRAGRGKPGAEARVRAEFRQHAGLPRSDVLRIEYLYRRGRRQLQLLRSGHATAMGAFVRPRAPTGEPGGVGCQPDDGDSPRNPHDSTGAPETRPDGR
UniProt O14777: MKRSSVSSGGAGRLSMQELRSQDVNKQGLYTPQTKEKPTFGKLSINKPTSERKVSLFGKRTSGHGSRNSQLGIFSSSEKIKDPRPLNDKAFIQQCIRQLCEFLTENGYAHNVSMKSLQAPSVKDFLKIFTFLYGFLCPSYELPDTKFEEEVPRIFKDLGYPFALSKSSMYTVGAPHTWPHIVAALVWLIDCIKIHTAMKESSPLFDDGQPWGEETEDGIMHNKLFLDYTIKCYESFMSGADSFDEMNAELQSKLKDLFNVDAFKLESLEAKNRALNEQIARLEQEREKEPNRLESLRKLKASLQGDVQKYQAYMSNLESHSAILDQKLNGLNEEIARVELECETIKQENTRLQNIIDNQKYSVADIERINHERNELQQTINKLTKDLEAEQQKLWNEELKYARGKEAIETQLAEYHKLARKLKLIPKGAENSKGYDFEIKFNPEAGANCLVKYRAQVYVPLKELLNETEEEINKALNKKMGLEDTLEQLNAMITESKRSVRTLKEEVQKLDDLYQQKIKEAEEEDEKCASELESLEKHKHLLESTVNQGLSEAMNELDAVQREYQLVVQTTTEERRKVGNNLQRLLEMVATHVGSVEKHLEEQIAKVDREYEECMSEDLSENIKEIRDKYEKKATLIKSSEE
UniProt O00487, whole entry: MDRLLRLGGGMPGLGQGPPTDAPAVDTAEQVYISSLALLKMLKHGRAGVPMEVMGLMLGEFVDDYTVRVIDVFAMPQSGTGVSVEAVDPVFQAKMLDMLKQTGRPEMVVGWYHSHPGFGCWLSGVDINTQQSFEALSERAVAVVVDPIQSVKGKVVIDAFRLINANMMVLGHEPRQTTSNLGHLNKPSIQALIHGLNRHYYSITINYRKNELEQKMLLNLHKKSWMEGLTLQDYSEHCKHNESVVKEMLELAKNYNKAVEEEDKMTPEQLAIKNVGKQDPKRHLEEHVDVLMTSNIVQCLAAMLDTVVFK
UniProt O15260: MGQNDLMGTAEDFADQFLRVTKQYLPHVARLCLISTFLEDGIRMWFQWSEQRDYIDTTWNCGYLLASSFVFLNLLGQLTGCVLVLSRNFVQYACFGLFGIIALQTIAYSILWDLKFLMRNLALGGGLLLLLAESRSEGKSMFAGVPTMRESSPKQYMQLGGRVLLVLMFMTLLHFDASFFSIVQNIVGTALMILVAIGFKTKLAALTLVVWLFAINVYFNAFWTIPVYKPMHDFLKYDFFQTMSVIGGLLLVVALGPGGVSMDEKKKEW
UniProt O15231: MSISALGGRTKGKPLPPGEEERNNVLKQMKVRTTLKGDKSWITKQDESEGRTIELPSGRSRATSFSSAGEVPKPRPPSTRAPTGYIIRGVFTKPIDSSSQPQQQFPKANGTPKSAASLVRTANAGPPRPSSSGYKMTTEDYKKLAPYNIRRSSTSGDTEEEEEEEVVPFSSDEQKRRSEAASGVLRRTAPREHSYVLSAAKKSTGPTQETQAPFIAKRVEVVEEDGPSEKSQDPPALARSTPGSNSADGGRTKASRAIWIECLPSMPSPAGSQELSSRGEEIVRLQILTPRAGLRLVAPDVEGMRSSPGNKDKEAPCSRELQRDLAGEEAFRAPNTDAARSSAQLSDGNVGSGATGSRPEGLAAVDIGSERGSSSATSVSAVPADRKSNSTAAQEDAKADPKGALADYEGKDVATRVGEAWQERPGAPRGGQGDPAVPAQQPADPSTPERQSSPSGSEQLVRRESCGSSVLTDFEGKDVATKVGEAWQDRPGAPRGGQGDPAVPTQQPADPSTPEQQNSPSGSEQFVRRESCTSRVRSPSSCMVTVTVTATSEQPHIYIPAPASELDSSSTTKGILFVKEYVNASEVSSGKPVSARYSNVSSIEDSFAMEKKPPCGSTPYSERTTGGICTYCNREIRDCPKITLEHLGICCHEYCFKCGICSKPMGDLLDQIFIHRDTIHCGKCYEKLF

compound: CN[C@@H]1C[C@H]2O[C@@](C)([C@@H]1OC)n1c3ccccc3c3c4c(c5c6ccccc6n2c5c31)C(=O)NC4 [staurosporine]; test: log2 fold change of tryptic peptide abundance, ligand vs vehicle (limited proteolysis) (log2 ratio); higher = more trypsin-susceptible (destabilized); settings: ligand concentration: 20 uM; sample: K562 cleared lysate; digestion: 4 min, 22 C (HT-PELSA RT4min, Orbitrap Astral)

Target | log2 fold change
PES1 (peptide sequence: CHVQTIQLCR, peptide start residue: 153) (UniProt O00541) | -0.163
HDAC3 (peptide sequence: FHSEDYIDFLQR, peptide start residue: 61) (UniProt O15379) | -0.206
UniProt A6NFY7 (peptide sequence: SGHATAMGAFVRPR, peptide start residue: 66) | 0.334
NDC80 (peptide sequence: LKDLFNVDAFKLESLEAK, peptide start residue: 254) (UniProt O14777) | 0.481
UniProt O00487 (peptide sequence: AVAVVVDPIQSVKGK, peptide start residue: 140) | -0.551
SURF4 (peptide sequence: SMFAGVPTMR, peptide start residue: 140) (UniProt O15260) | 0.0394
UniProt O15231 (peptide sequence: EYVNASEVSSGKPVSAR, peptide start residue: 580) | -0.301
